{"sequences": {"note": "Amino acid sequences for entries named in this document (tags omitted).", "UniProt P18054, whole entry, looked up": "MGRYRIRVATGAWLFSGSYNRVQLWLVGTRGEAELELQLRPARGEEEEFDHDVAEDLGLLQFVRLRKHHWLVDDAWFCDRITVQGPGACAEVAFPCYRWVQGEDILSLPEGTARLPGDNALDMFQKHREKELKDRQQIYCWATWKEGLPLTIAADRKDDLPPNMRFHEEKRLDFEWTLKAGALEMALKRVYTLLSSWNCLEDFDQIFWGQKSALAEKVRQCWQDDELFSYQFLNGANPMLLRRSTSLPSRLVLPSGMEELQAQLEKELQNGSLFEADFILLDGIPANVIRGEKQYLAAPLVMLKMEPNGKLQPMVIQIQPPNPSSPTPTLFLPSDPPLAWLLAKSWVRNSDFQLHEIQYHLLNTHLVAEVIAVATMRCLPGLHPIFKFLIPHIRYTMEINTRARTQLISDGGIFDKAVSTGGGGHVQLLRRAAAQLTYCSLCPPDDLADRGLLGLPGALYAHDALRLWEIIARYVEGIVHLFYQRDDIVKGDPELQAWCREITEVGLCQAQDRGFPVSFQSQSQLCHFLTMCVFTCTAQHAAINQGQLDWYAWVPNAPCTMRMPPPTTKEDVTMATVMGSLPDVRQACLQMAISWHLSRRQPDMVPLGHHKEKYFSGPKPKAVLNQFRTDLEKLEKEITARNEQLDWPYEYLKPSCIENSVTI"}, "source": "PubChem BioAssay AID1671190", "about": "(National Center for Advancing Translational Sciences (NCATS), 2021)", "note": "In all, about 580,000 compounds went through this assay and about 6,100 (1.1%) were called active. This list was built around the results that the source calls inconclusive (neither active nor inactive); the mix of calls is not that of the screen. Calls follow the shape of the dose curve; as a rule, active = well fitted inhibition curve with a large enough effect; inconclusive = small, poorly fitted or top-dose-only effect, or another doubt; inactive = no such curve, though single readings can be large or run the other way. Potencies of inconclusive entries are doubtful fits and often do not repeat. Potency is read from the fitted curve at half-maximal effect."}
{"biological_target": "Polyunsaturated fatty acid lipoxygenase ALOX12 (Homo sapiens) (UniProt P18054)", "assay": "Primary qHTS assay for inhibitors of human arachidonate 12S-lipoxygenase (ALOX12): Round 2", "conditions": "purified 12hLO, xylenol orange hydroperoxide absorbance; series mostly up to 108 µM", "summary_of_the_method": "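Hydroperoxide product was detected by ferrous iron/xylenol orange as the 573 to 405 nm absorbance ratio. Arachidonic acid at 40 uM (final) was turned over for 30 min at room temperature by 150 nM human 12hLO, pH 7.0 Hepes buffer, after 15 min compound preincubation.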"}
{"smiles": "CC(Nc1ccc([N+](=O)[O-])c2nonc12)c1ccc(Cl)cc1", "note": "(configuration not stated)", "Potency": "inconclusive: 44.7 µM [inhibitor, partial curve, poor fit]"}
{"smiles": "C=CCn1c(O)c(C(CC)=NCCN2CCN(C(=S)NC)CC2)c(=O)[nH]c1=O", "Potency": "inconclusive: 15.8 µM [inhibitor, full curve]"}
{"smiles": "COc1cc(OC)c(OC)cc1CNCCc1cccc(F)c1", "Potency": "inconclusive: 1.78 µM [inhibitor, full curve, poor fit]"}
{"smiles": "COc1ccc(CN2CCN(c3ccccc3)CC2)c(C)c1C", "Potency": "inconclusive: 4.47 µM [inhibitor, full curve, poor fit]"}
{"smiles": "CC[C@H]1CN2CC[C@H]1C[C@@H]2CNC(=O)c1ccc(F)c(Cl)c1", "Potency": "inactive"}
{"smiles": "C(=C\\c1ccccc1)/CN1CCN(CCOC(c2ccccc2)c2ccccc2)CC1", "Potency": "inconclusive: 39.8 µM [inhibitor, partial curve, poor fit]"}
{"smiles": "CCOC(=O)C1=C(N)OC(C)=C(C(=O)OCc2ccccc2)C12C(=O)Nc1ccc(Br)cc12", "note": "(configuration not stated)", "Potency": "inactive"}
{"smiles": "CC(O)C(C)OC(=O)[C@@H]1C[C@@H]2c3cccc4c3c(cn4C(C)C)C[C@H]2N(C)C1", "note": "(some centres not stated)", "Potency": "inconclusive: 39.8 µM [inhibitor, partial curve, poor fit]"}
{"smiles": "O=C1NC(=O)N(Cc2ccccc2)C(=O)/C1=C\\C=C\\c1ccco1", "Potency": "active: 39.8 µM"}
{"smiles": "CCOc1c(Cl)cc(CNCCc2c[nH]c3ccccc23)cc1OC", "Potency": "inconclusive: 63.1 µM [inhibitor, partial curve, poor fit]"}
{"smiles": "COc1ccc2[nH]c(C)c(CCNCc3cccnc3)c2c1", "Potency": "inconclusive: 0.631 µM [inhibitor, full curve, poor fit]"}
{"smiles": "Cc1ccc(N2CCN(CCc3ccccc3)CC2)cc1", "Potency": "inconclusive: 10 µM [inhibitor, full curve, poor fit]"}
{"smiles": "CCOP(=O)(OCC)/C(C#N)=C/c1ccoc1", "Potency": "inconclusive: 17.8 µM [inhibitor, partial curve, poor fit]"}
{"smiles": "CCOc1c(P(=S)(N(C)C)N(C)C)c(C)nn1-c1ccccc1", "Potency": "inactive"}
{"smiles": "O=C1C2(Cl)C3(Cl)C4(Cl)C(Cl)(Cl)C5(Cl)C3(Cl)C1(Cl)C5(Cl)C24Cl", "note": "(configuration not stated)", "Potency": "inconclusive: 70.8 µM [inhibitor, partial curve, poor fit]"}
{"smiles": "CC1CC2(C)C(=CC1=O)CCC1C3CCC(C)(O)C3(C)CC3OC312", "note": "(configuration not stated)", "Potency": "inconclusive: 4.47 µM [inhibitor, full curve, poor fit]"}
{"smiles": "O=C1N(c2ccccn2)C[C@H]2CN(Cc3ccccc3)CCN12", "Potency": "inactive"}
{"smiles": "COc1ccc(-n2nnnc2C(c2cccs2)N2CCC3(CC2)C(=O)NCN3c2ccccc2)cc1", "note": "(configuration not stated)", "Potency": "inconclusive: 44.7 µM [inhibitor, partial curve, poor fit]"}
{"smiles": "Clc1cccc(C2NCc3ccccc3-n3cccc32)c1", "note": "(configuration not stated)", "Potency": "inconclusive: 44.7 µM [inhibitor, partial curve, poor fit]"}
{"smiles": "CC(=O)NCC1=C(c2ccc3ccccc3c2)C[C@@H]2CC[C@H]1N2Cc1ccco1", "Potency": "active: 28.2 µM"}
{"smiles": "O=C1CC(c2c(F)cccc2Cl)c2c(c3ccccc3oc2=O)O1", "note": "(configuration not stated)", "Potency": "inconclusive: 89.1 µM [inhibitor, partial curve, poor fit]"}
{"smiles": "O=C1NCCCCCN[C@H]2CCCC[C@@H]12", "Potency": "inactive"}
{"smiles": "C#C[C@]1(O)CCC2C3CCC4=C/C(=N/OCC(=O)NC(C)C(=O)NC(CCSC)C(=O)O)CC[C@]4(C)C3CC[C@@]21C", "note": "(some centres not stated)", "Potency": "inactive"}
{"smiles": "CCCCCn1c(=O)c(C(=O)Nc2nc3ccccc3[nH]2)c(O)c2ccccc21", "Potency": "inactive"}
{"smiles": "CC1CCCC(C)N1/N=C/c1c[nH]c2ccc(Br)cc12", "note": "(configuration not stated)", "Potency": "inconclusive: 100 µM [inhibitor, partial curve, poor fit]"}
{"smiles": "O=C(NC[C@H]1C[C@@H]2CCN1C[C@@H]2CN1CCCCC1)Nc1ccccc1", "Potency": "inactive"}
{"smiles": "O=C1NC(=O)N(c2ccc(Br)cc2)C(=O)/C1=C/c1ccsc1", "Potency": "inconclusive: 44.7 µM [inhibitor, partial curve, poor fit]"}
{"smiles": "N#Cc1ccc(CN2CCC(c3c[nH]c4ccccc34)CC2)cc1", "Potency": "inconclusive: 31.6 µM [inhibitor, partial curve, poor fit]"}
{"smiles": "CN[C@@H](Cc1c[nH]c2ccccc12)C(=O)O", "Potency": "inconclusive: 6.31 µM [inhibitor, full curve, poor fit]"}
{"smiles": "CCOc1ccc(N2C(=O)/C(=C\\c3cccs3)C(=O)NC2=S)cc1", "Potency": "inconclusive: 12.6 µM [inhibitor, full curve]"}
{"smiles": "COc1ccc(CNCCc2ccc(F)cc2)cc1", "Potency": "inconclusive: 0.562 µM [inhibitor, full curve, poor fit]"}
{"smiles": "CCOc1ccc(C2CC(c3c(O)n(C)c(=O)n(C)c3=O)=NN2)cc1", "note": "(configuration not stated)", "Potency": "inactive"}
{"smiles": "CCN1C(=O)CC(=O)N(CC)C1=S", "Potency": "inconclusive: 79.4 µM [inhibitor, partial curve, poor fit]"}
{"smiles": "CN(C)CCOC(=O)c1cn(Cc2ccccc2)c2ccccc12", "Potency": "inconclusive: 44.7 µM [inhibitor, partial curve, poor fit]"}
{"smiles": "CCOCCCNC1CC(C)CC(C)(C)C1", "note": "(configuration not stated)", "Potency": "inconclusive: 3.55 µM [inhibitor, full curve, poor fit]"}
{"smiles": "O=C(/C=C/c1ccc2c(c1)OCO2)c1c(O)n(CCc2ccccc2)c(=O)[nH]c1=O", "Potency": "inconclusive: 15.8 µM [inhibitor, full curve]"}
{"smiles": "CCCCC1(CCC)C(=O)NC(=S)NC1=O", "Potency": "inconclusive: 50.1 µM [inhibitor, partial curve, poor fit]"}
{"smiles": "C=CCN1C(=O)/C(=C/c2cccs2)C(=O)NC1=S", "Potency": "active: 44.7 µM"}
{"smiles": "c1ccc(Cc2cnc(N3CCNCC3)nc2)cc1", "Potency": "inconclusive: 31.6 µM [inhibitor, partial curve, poor fit]"}
{"smiles": "COc1ccc(C2(C(=O)N3[C@H]4CC[C@@H]3c3cnc(C)nc3C4)CCCCC2)cc1", "Potency": "inconclusive: 6.31 µM [inhibitor, full curve]"}
{"smiles": "S=C(SSC(=S)N1CCCCC1)N1CCCCC1", "Potency": "inconclusive: 4.05 µM [inhibitor, partial curve]"}
{"smiles": "O=C1CC(=O)N(Cc2ccccc2)C(=O)N1Cc1ccccc1", "Potency": "inconclusive: 44.7 µM [inhibitor, partial curve, poor fit]"}
